Results on two molecules are retold here after article PMC6529775.

Protein sequences, listed by entry. Tags and fused reporters are not part of them.
UniProt Q8R4B8: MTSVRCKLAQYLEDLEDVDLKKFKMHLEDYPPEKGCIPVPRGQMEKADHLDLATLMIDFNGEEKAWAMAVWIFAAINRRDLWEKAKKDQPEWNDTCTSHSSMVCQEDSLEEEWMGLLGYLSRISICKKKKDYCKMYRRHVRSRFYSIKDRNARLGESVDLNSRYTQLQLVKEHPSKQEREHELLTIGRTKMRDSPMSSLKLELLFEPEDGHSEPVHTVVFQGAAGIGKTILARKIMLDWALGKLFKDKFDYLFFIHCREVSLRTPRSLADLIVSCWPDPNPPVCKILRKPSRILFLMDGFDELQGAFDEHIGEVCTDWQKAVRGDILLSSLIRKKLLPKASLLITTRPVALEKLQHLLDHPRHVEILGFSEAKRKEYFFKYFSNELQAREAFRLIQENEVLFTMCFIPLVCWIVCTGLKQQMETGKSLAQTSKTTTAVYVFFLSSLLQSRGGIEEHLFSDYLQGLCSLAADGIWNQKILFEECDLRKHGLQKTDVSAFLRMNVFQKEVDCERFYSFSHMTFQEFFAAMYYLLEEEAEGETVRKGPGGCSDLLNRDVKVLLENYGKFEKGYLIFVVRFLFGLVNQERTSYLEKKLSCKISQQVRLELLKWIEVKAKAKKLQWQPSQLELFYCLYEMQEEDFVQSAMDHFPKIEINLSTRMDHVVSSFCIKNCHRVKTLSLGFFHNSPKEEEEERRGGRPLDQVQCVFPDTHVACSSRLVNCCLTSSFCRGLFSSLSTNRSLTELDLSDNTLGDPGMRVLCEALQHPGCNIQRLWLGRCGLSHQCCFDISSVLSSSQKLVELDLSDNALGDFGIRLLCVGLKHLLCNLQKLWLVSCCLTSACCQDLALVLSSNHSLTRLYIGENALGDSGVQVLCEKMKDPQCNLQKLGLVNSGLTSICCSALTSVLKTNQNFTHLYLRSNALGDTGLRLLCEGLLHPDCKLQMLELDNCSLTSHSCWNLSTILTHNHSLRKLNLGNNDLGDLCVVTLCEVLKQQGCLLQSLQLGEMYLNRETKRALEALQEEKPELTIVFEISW

No constants are given. Whether binding was seen depends on the method and setting. In cells and extracts the contact can be indirect. Some binding calls cover weakened binding; strength is not graded here.

The test concerns the target T1, Thioredoxin-interacting protein (TXNIP) (mouse (endogenous in heart tissue)) (UniProt Q8BG60).
T1 sequence: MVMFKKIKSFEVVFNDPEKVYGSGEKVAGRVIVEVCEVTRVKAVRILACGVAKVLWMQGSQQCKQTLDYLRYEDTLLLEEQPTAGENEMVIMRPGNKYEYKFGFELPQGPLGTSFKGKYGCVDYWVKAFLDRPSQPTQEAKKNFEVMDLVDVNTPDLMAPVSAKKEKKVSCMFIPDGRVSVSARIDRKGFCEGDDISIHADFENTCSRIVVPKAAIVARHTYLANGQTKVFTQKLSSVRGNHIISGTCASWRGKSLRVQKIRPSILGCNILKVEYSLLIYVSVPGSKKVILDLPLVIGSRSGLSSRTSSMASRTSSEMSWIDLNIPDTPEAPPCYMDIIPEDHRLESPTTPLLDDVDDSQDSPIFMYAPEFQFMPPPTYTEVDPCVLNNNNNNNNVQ
The test is described as follows: co-IP; 1 mg total protein lysate of mouse left ventricle tissue (WT or STING knockout, sham or LPS 10 mg/kg for 12 h); IP with anti-TXNIP (rabbit IgG control), Protein A/G PLUS-Agarose, 4 °C; blotted with anti-NLRP3, anti-Trx and anti-TXNIP.

As to “NOD-like receptor protein 3 (NLRP3) (from UniProt Q8R4B8 1-1033)”, the binding entry is on record as “binds”.

B1: thioredoxin (Trx) (protein, UniProt P10639 1-105)
chain: MVKLIESKEAFQEALAAAGDKLVVVDFSATWCGPCKMIKPFFHSLCDKYSNVVFLEVDVDDCQDVAADCEVKCMPTFQFYKKGQKVGEFSGANKEKLEASITEYA
For the molecule B1, the binding result is “binds”.
